# In PMC7949057, “The cytoprotective protein MANF promotes neuronal survival independently from its role as a GRP78 cofactor” (The Journal of Biological Chemistry, 2021):
# Results are given in words; binding and its absence hold for the method and conditions named. Binding seen in cells or lysates may run through a third protein. These calls come from enrichment with a bait or labelling near it, and not all partners need be listed. Where a sequence is shown, tags or fusion partners need not be part of it.
# T1: SH-tagged MANF (pre-SH-MANF), expressed in INS1 cells (human) (UniProt P55145)
# T1 sequence: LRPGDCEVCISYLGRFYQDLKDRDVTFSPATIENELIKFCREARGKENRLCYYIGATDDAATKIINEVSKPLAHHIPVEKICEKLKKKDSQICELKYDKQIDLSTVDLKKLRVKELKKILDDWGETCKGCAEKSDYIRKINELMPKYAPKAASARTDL
# T2: SH-tagged MANF (pre-SH-MANF), expressed in HEK293 cells (human) (UniProt P55145)
# T2 sequence: T1 sequence
# B1: GRP170, endogenous in INS1 (protein, UniProt Q63617 33-999)
# chain: LAVMSVDLGSESMKVAIVKPGVPMEIVLNKESRRKTPVTVTLKENERFLGDSAAGMAIKNPKATLRYFQHLLGKQADNPHVALYRSRFPEHELNVDPQRQTVRFQISPQLQFSPEEVLGMVLNYSRSLAEDFAEQPIKDAVITVPAFFNQAERRAVLQAARMAGLKVLQLINDNTATALSYGVFRRKDINSTAQNIMFYDMGSGSTVCTIVTYQTVKTKEAGTQPQLQIRGVGFDRTLGGLEMELRLREHLAKLFNEQRKGQKAKDVRENPRAMAKLLREANRLKTVLSANADHMAQIEGLMDDVDFKAKVTRVEFEELCADLFDRVPGPVQQALQSAEMSLDQIEQVILVGGPTRVPKVQEVLLKPVGKEELGKNINADEAAAMGAVYQAAALSKAFKVKPFVVRDAVIYPILVEFTREVEEEPGLRSLKHNKRVLFSRMGPYPQRKVITFNRYSHDFNFHINYGDLGFLGPEDLRVFGSQNLTTVKLKGVGESFKKYPDYESKGIKAHFNLDESGVLSLDRVESVFETLVEDSPEEESTLTKLGNTISSLFGGGTSSDAKENGTDAVQEEEESPAEGSKDEPAEQGELKEEAEAPMEDTSQPPPSEPKGDAAREGETPDEKESGDKSEAQKPNEKGQAGPEGVPPAPEEEKKQKPARKQKMVEEIGVELAVLDLPDLPEDELAHSVQKLEDLTLRDLEKQEREKAANSLEAFIFETQDKLYQPEYQEVSTEEQREEISGKLSATSTWLEDEGFGATTVMLKDKLAELRKLCQGLFFRVEERRKWPERLSALDNLLNHSSIFLKGARLIPEMDQIFTDVEMTTLEKVINDTWTWKNATLAEQAKLPATEKPVLLSKDIEAKMMALDREVQYLLNKAKFTKPRPRPKDKNGTRTEPPLNASAGDQEEKVIPPTGQTEEAKAILEPDKEGLGTEAADSEPLELGGPGAESEQAEQTAGQKRPLKNDEL
# B2: transketolase, endogenous in INS1 (protein, UniProt P50137 1-623)
# chain: MEGYHKPDQQKLQALKDTANRLRISSIQATTAAGSGHPTSCCSAAEIMAVLFFHTMRYKALDPRNPHNDRFVLSKGHAAPILYAVWAEAGFLPEAELLNLRKISSDLDGHPVPKQAFTDVATGSLGQGLGAACGMAYTGKYFDKASYRVYCMLGDGEVSEGSVWEAMAFAGIYKLDNLVAIFDINRLGQSDPAPLQHQVDVYQKRCEAFGWHAIIVDGHSVEELCKAFGQAKHQPTAIIAKTFKGRGITGIEDKEAWHGKPLPKNMAEQIIQEIYSQVQSKKKILATPPQEDAPSVDIANIRMPTPPNYKVGDKIATRKAYGLALAKLGHASDRIIALDGDTKNSTFSELFKKEHPDRFIECYIAEQNMVSIAVGCATRDRTVPFCSTFAAFFTRAFDQIRMAAISESNINLCGSHCGVSIGEDGPSQMALEDLAMFRSVPMSTVFYPSDGVATEKAVELAANTKGICFIRTSRPENAIIYSNNEDFQVGQAKVVLKSKDDQVTVIGAGVTLHEALAAAEMLKKEKIGVRVLDPFTIKPLDKKLILDCARATKGRILTVEDHYYEGGIGEAVSAVVVGEPGVTVTRLAVSQVPRSGKPAELLKMFGIDKDAIVQAVKGLVTKG
# B3: leucine-rich repeat-containing protein 59, endogenous in INS1 (protein, UniProt Q5RJR8 1-307)
# chain: MTKTGSKGGNLRDKLDGNELDLSLSDLNEVPVKELAALPKATVLDLSCNKLSTLPSDFCGLTHLVKLDLSKNKLQQLPADFGRLVNLQHLDLLNNRLVTLPVSFAQLKNLKWLDLKDNPLDPVLAKVAGDCLDEKQCKQCANKVLQHMKAVQADQERERQRRLEVEREAEKKREAKQQAKEAKERELRKREKAEEKERRRKEYDAQKASKREQEKKPKKETNQAPKSKSGSRPRKPPPRKHNRSWAVLKGLLLLLLLCVAGGLVVCRVTGLQQQPLCTSVNAIYDNAVQGLRHHEILQWVLQTDSQQ
# B4: HS105, endogenous in INS1 (protein, UniProt Q66HA8 1-858)
# chain: MSVVGLDVGSQSCYIAVARAGGIETIANEFSDRCTPSVISFGPKNRTIGVAAKNQQITHANNTVSSFKRFHGRAFNDPFIQKEKENLSYDLVPMKNGGVGIKVMYMDEDHLFSVEQITAMLLTKLKETAENNLKKPVTDCVISVPSFFTDAERRSVLDAAQIVGLNCLRLMNDMTAVALNYGIYKQDLPNADEKPRVVVFVDMGHSSFQVSACAFNKGKLKVLGTAFDPFLGGKNFDEKLVEHFCAEFKTKYKLDAKSKIRALLRLHQECEKLKKLMSSNSTDLPLNIECFMNDKDVSAKMNRSQFEELCAELLQKIEVPLHLLMEQTHLKTEEVSAIEIVGGATRIPAVKERIARFFGKDVSTTLNADEAVARGCALQCAILSPAFKVREFSVTDAVPFPISLVWNHDSEETEGVHEVFSRNHAAPFSKVLTFLRRGPFELEAFYSDPQAVPYPEAKIGRFVVQNVSAQKDGEKSKVKVKVRVNTHGIFTISTASMVEKVPTEEEDGSSVEADMECPNQKPAESSDVDKNIQQDNSEAGTQPQVQTDGQQTSQSPPSPELTSEENKIPDADKANEKKVDQPPEAKKPKIKVVNVELPVEANLVWQLGRDLLNMYIETEGKMIMQDKLEKERNDAKNAVEECVYEFRDKLCGPYEKFICEQEHEKFLRLLTETEDWLYEEGEDQAKQAYIDKLEELMKMGTPVKVRFQEAEERPRVLEELGQRLQHYAKIAADFRGKDEKYNHIDESEMKKVEKSVNEVMEWMNNVMNAQAKRSLHQDPVVRTHEISAKVKELNNVCEPVVTQPKPKIESPKLERTPNGPNMDKKEDLEGKSNLGADAPHQNGECHPNEKGSVSMDLD
# B5: PDIA6, endogenous in INS1 (protein, UniProt Q63081 20-440)
# chain: LYSSSDDVIELTPSNFNREVIQSDSLWLVEFYAPWCGHCQRLTPEWKKAASALKDVVKVGAVNADKHQSLGGQYGVQGFPTIKIFGANKNKPEDYQGGRTGEAIVDAALSALRQLVKDRLGGRSGGYSSGKQGRGDSSSKKDVVELTDDTFDKNVLDSEDVWMVEFYAPWCGHCKNLEPEWAAAATEVKEQTKGKVKLAAVDATVNQVLASRYGIKGFPTIKIFQKGESPVDYDGGRTRSDIVSRALDLFSDNAPPPELLEIINEDIAKKTCEEHQLCVVAVLPHILDTGATGRNSYLEVLLKLADKYKKKMWGWLWTEAGAQYELENALGIGGFGYPAMAAINARKMKFALLKGSFSEQGINEFLRELSFGRGSTAPVGGGSFPNITPREPWDGKDGELPVEDDIDLSDVELDDLEKDEL
# B6: PGAM1, endogenous in INS1 (protein, UniProt P25113 1-254)
# chain: MAAYKLVLIRHGESAWNLENRFSGWYDADLSPAGHEEAKRGGQALRDAGYEFDICFTSVQKRAIRTLWTVLDAIDQMWLPVVRTWRLNERHYGGLTGLNKAETAAKHGEAQVKIWRRSYDVPPPPMEPDHPFYSNISKDRRYADLTEDQLPSCESLKDTIARALPFWNEEIVPQIKEGKRVLIAAHGNSLRGIVKHLEGLSEEAIMELNLPTGIPIVYELDKNLKPIKPMQFLGDEETVRKAMEAVAAQGKVKK
# B7: ECHB, endogenous in INS1 (protein, UniProt Q60587 35-475)
# chain: SAPAVQTKSKKTLAKPNLKNIVVVEGVRIPFLLSGTSYKDLMPHDLARAALSGLLYRTNIPKDVVDYIIFGTVIQEVKTSNVAREAALGAGFSDKTPAHTVTMACISSNQAMTTAVGLIASGQCDVVVAGGVELMSDVPIRHSRNMRKMMLDLNKAKTLAQRLSLLTKFRLNFLSPELPAVAEFSTNETMGHSADRLAAAFAVSRMEQDKYALRSHSLAKKAQDEGHLSDIVPFKVPGKDTVSKDNGIRPSSLEQMAKLKPAFIKPYGTVTAANSSFLTDGASAMLIMSEDRALAMGYKPKAYLRDFIYVSQDPKDQLLLGPTYATPKVLEKAGLTMNDIDAFEFHEAFSGQILANFKAMDSDWFAQNYMGRKTKVGAPPLEKFNIWGGSLSLGHPFGATGCRLVMAAANRLRKDGGQYALVAACAAGGQGHAMIVEAYPK
# B8: phosphatidylethanolamine-binding protein 1, endogenous in INS1 (protein, UniProt P31044 1-187)
# chain: MAADISQWAGPLSLQEVDEPPQHALRVDYGGVTVDELGKVLTPTQVMNRPSSISWDGLDPGKLYTLVLTDPDAPSRKDPKFREWHHFLVVNMKGNDISSGTVLSEYVGSGPPKDTGLHRYVWLVYEQEQPLNCDEPILSNKSGDNRGKFKVESFRKKYHLGAPVAGTCFQAEWDDSVPKLHDQLAGK
# B9: ERO1-like protein alpha, endogenous in INS1 (protein, UniProt Q8R4A1 24-464)
# chain: EEQQQETAAQRCFCQVSGYLDDCTCDVETIDKFNNYRLFPRLQKLLESDYFRYYKVNLRKPCPFWNDINQCGRRDCAVKPCHSDEVPDGIKSASYKYSKEANLLEECEQAERLGAVDESLSEETQKAVLQWTKHDDSSDSFCEVDDIQSPDAEYVDLLLNPERYTGYKGPDAWRIWSVIYEENCFKPQTIQRPLASGQGKHKENTFYSWLEGLCVEKRAFYRLISGLHASINVHLSARYLLQDNWLEKKWGHNVTEFQQRFDGVLTEGEGPRRLKNLYFLYLIELRALSKVLPFFERPDFQLFTGNKVQDVENKELLLEILHEVKSFPLHFDENSFFAGDKNEAHKLKEDFRLHFRNISRIMDCVGCFKCRLWGKLQTQGLGTALKILFSEKLIANMPESGPSYEFQLTRQEIVSLFNAFGRISTSVRELENFRHLLQNVH
# B10: NADPH--cytochrome P450 reductase, endogenous in INS1 (protein, UniProt P00388 1-678)
# chain: MGDSHEDTSATMPEAVAEEVSLFSTTDMVLFSLIVGVLTYWFIFRKKKEEIPEFSKIQTTAPPVKESSFVEKMKKTGRNIIVFYGSQTGTAEEFANRLSKDAHRYGMRGMSADPEEYDLADLSSLPEIDKSLVVFCMATYGEGDPTDNAQDFYDWLQETDVDLTGVKFAVFGLGNKTYEHFNAMGKYVDQRLEQLGAQRIFELGLGDDDGNLEEDFITWREQFWPAVCEFFGVEATGEESSIRQYELVVHEDMDVAKVYTGEMGRLKSYENQKPPFDAKNPFLAAVTANRKLNQGTERHLMHLELDISDSKIRYESGDHVAVYPANDSALVNQIGEILGADLDVIMSLNNLDEESNKKHPFPCPTTYRTALTYYLDITNPPRTNVLYELAQYASEPSEQEHLHKMASSSGEGKELYLSWVVEARRHILAILQDYPSLRPPIDHLCELLPRLQARYYSIASSSKVHPNSVHICAVAVEYEAKSGRVNKGVATSWLRAKEPAGENGGRALVPMFVRKSQFRLPFKSTTPVIMVGPGTGIAPFMGFIQERAWLREQGKEVGETLLYYGCRRSDEDYLYREELARFHKDGALTQLNVAFSREQAHKVYVQHLLKRDREHLWKLIHEGGAHIYVCGDARNMAKDVQNTFYDIVAEFGPMEHTQAVDYVKKLMTKGRYSLDVWS
# B11: peroxiredoxin-4, endogenous in HEK293 (protein, UniProt Q13162 38-271)
# chain: WETEERPRTREEECHFYAGGQVYPGEASRVSVADHSLHLSKAKISKPAPYWEGTAVIDGEFKELKLTDYRGKYLVFFFYPLDFTFVCPTEIIAFGDRLEEFRSINTEVVACSVDSQFTHLAWINTPRRQGGLGPIRIPLLSDLTHQISKDYGVYLEDSGHTLRGLFIIDDKGILRQITLNDLPVGRSVDETLRLVQAFQYTDKHGEVCPAGWKPGSETIIPDPAGKLKYFDKLN
# Biological target: T1, SH-tagged MANF (pre-SH-MANF), expressed in INS1 cells (human)
# Experiment: affinity purification with mass spectrometry; SH-tagged MANF as bait from doxycycline-induced INS1 pre-SH-MANF cells; HENN lysis buffer; Strep-Tactin beads, biotin elution; GFP-SH cells as negative control; FDR <= 0.001, s0 = 2
row,binding,Binder
1,binds,B1
2,binds,B2
3,binds,B3
4,binds,B4
5,binds,B5
6,binds,B6
7,binds,B7
8,binds,B8
9,binds,B9
10,binds,B10

# Biological target: T2, SH-tagged MANF (pre-SH-MANF), expressed in HEK293 cells (human)
# Experiment: affinity purification with mass spectrometry; SH-tagged MANF as bait from doxycycline-induced HEK293 pre-SH-MANF cells; HENN lysis buffer (50 mM Hepes-NaOH pH 8.0, 5 mM EDTA, 150 mM NaCl, 50 mM NaF, 0.5% NP40); Strep-Tactin beads, biotin elution; GFP-SH cells as negative control; FDR <= 0.001, s0 = 2
row,binding,Binder
1,binds,B11
